Experimental data as given in article PMC12062448.

The chains behind the UniProt entries cited, without tags or fusion partners. Residues count along the entry.
UniProt Q65900, residues 1549-1731: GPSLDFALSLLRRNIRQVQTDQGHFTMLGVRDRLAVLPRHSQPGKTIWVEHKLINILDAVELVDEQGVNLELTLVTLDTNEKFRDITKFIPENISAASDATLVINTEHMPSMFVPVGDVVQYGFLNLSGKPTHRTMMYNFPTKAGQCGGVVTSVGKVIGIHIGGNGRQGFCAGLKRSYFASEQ
UniProt Q14764: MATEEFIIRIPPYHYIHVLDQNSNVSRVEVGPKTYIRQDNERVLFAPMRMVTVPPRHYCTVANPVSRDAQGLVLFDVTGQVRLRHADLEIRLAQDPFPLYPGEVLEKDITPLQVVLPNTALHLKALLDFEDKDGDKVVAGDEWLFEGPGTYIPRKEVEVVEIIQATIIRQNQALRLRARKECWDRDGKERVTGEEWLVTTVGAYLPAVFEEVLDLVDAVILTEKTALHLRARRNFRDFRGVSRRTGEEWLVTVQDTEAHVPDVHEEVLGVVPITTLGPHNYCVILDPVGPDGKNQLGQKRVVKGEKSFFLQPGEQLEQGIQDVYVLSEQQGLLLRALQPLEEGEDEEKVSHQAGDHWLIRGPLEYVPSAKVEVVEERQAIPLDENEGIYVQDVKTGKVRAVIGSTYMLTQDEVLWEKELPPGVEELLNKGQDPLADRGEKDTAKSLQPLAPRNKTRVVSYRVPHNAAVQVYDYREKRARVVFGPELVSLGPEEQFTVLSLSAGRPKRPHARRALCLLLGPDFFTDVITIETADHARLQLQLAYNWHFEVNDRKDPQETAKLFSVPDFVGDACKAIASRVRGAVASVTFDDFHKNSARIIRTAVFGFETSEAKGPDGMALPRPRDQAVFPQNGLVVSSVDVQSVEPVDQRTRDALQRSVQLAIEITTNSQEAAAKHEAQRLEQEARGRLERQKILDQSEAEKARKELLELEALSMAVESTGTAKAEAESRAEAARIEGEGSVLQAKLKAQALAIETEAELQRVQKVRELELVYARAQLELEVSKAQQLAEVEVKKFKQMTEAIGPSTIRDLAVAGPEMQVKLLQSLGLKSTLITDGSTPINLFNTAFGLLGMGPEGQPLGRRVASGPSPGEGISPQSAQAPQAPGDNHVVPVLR

Molecular target: Enterovirus 71 3C protease, FLAG-tagged (3C-FLAG) (human enterovirus 71 (EV71)) (UniProt Q65900)
Assay: affinity purification with mass spectrometry; lysates of 10^7 U87 MG cells transfected with the 3C-FLAG plasmid, IP lysis buffer with 1 mM PMSF; anti-FLAG antibody and protein A/G agarose beads, 4 °C, 3 h; control: nonspecific IgG; SDS-PAGE gel slice, in-gel trypsin digestion, LC-MS/MS

For “major vault protein (MVP) (from UniProt Q14764 1-893)”, the binding was “binds”.

Results are given in words; binding and its absence hold for the method and conditions named. In cells and extracts the contact can be indirect. A yes stands for co-enrichment or nearness to the bait. Other partners may have been found.
